These are yes or no findings as the source states them, for the method shown. Some entries that bind do so weakly or less than the wild type.
Columns and labels:
dimeric hActRIIB (human) [1] = target: dimeric hActRIIB (human) (UniProt Q13705); assay: SPR (Biacore), 37 C
[2] = target: monomeric hActRIIB (human) (UniProt Q13705); assay: SPR (Biacore), 37 C
dimeric hActRIIB (human) [3] = target: dimeric hActRIIB (human) (UniProt Q13705); assay: SPR (BIACORE), 37 C, series of concentrations (not printed on the sheet)
[4] = target: monomeric hActRIIB (human) (UniProt Q13705); assay: as above

Chains of the proteins cited; added tags and fusions are not shown. Lines headed by an entry give the natural chain unless they say otherwise; changes in a name come on top.
UniProt Q13705: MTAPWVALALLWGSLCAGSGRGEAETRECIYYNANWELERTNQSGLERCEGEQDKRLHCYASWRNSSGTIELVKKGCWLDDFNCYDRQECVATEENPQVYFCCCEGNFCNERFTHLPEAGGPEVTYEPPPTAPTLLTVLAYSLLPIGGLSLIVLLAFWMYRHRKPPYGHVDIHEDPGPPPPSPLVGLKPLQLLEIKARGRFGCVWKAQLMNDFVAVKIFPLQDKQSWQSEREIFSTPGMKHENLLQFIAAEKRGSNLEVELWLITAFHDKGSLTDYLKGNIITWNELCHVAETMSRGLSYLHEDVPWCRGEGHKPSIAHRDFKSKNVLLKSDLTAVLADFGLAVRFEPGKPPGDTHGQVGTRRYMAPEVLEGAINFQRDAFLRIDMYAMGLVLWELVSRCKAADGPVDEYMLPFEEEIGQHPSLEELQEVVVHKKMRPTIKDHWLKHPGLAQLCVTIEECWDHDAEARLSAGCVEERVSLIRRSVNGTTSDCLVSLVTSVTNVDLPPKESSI

Measured: binding

B1: B01 (antibody, V domains shown)
VH: QVQLQESGPGLVKPSQTLSLTCTVSGGSILSGGYYWSWIRQHPGKGLEWIGGIYYSGKTYYNPSLKSRVTISVDTSKNQFSLKLSSVTAADTAVYYCARDSGIGYSYASSHGYYYYMDVWGKGTTVTVSS
VL: EIVLTQSPATLSVSPGERATLSCRASQSVGSNLAWYQQKPGQAPRLLIYGASTRATGIPARFSGSGSGTEFTLTISSLQSEDFAVYYCQQYFHFPLTFGGGTKVEIK
binds: dimeric hActRIIB (human) [1] | [2] | dimeric hActRIIB (human) [3] | [4]

From patent US20240374671A1
